PubChem BioAssay AID1159584 – Peter MacCallum Cancer Centre – 2016

- Assay: 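Knock-downs that harm CDH1-null cells more than parental MCF10A cells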 (primary screen)
- System: human MCF10A breast epithelial cells, parental and CDH1-null
- Reagent: siRNA against human genes
- Measured: 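Cell viability by CellTiter-Glo ATP luminescence, each line scaled to the mean of mock wells across plates, then CDH1-null over parental ratio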
- Scale: CDH1-null / parental viability ratio: higher = CDH1-null cells survive relatively better than parental; CDH1-null viability vs mock: higher = more viable CDH1-null cells; parental viability vs mock: higher = more viable parental cells
In all, the deposit lists about 18,000 reagents; below is an unselected part. Reagent sequences are not shown. The record does not give: the amount of reagent, the time to read-out.

Gene	CDH1-null / parental viability ratio	CDH1-null viability vs mock (fraction of mock)	parental viability vs mock (fraction of mock)
PRKACB	1	0.87	0.87
TINAG	1.22	0.71	0.58
LMNA	1.13	0.86	0.76
SLC6A8	1.03	1.01	0.98
KCNF1	1.21	0.98	0.81
CEACAM21	0.82	0.8	0.97
GPR37L1	1.36	0.76	0.56
SEMA3C	1.37	0.78	0.57
FAM216A	0.79	0.65	0.82
SLC6A14	1.11	0.72	0.65
PRDX4	1.11	1.19	1.07
THAP10	1.66	0.96	0.58
PKDCC	0.99	0.86	0.87
REEP3	1.11	0.82	0.74
PPP1R42	0.82	0.41	0.5
RXRA	0.68	0.51	0.75
SLC38A12	1.07	0.88	0.82
PF4	0.91	0.84	0.92
HYI	0.97	1.09	1.12
WDR59	0.6	0.37	0.62
KCNS1	1.1	0.88	0.8
PSMB8	1.09	0.87	0.8
PCYOX1	1.18	1.11	0.94
FOXJ2	0.85	0.82	0.96

Ordered by “parental viability vs mock (fraction of mock)” (highest first): 4 of the entries above.
Gene	CDH1-null / parental viability ratio	CDH1-null viability vs mock (fraction of mock)	parental viability vs mock (fraction of mock)
PF4	0.91	0.84	0.92
SLC38A12	1.07	0.88	0.82
RXRA	0.68	0.51	0.75
PPP1R42	0.82	0.41	0.5

Additional results:
Gene	CDH1-null / parental viability ratio	CDH1-null viability vs mock (fraction of mock)	parental viability vs mock (fraction of mock)
PCSK6	1.22	0.98	0.8
RELB	1.08	0.84	0.78
IFNA14	0.84	0.76	0.9
PPM1L	1.3	1	0.77
CST3	1.03	0.72	0.7
SELENON	1.38	1.02	0.74
ZNF202	0.83	0.76	0.92
AP1AR	0.96	0.9	0.94
FKBP5	0.87	0.69	0.79
SERPINB1	1.07	0.96	0.9
DEFB125	0.95	0.82	0.86
RPGRIP1L	0.9	0.64	0.71
ME3	0.88	0.94	1.07
DLL1	0.85	0.7	0.82
PLPBP	1.09	0.48	0.44
MAK	1.09	1.02	0.94
ZNF441	1.18	0.97	0.82
ST6GALNAC4	1.08	0.78	0.72
CD1C	0.76	0.59	0.78
OR2D3	1	0.56	0.56
RPA1	0.96	0.23	0.24
GLT8D1	0.92	1.06	1.15
